The target in this experiment is CiPPP1R3G-Flag (grass carp PPP1R3G, regulatory subunit of protein phosphatase 1) (grass carp (Ctenopharyngodon idella)). Briefly: co-IP; HEK293T cells co-transfected with CiPPP1R3G-Flag and CiIRF3-Myc (control: pCMV-FLAG and CiIRF3-Myc); lysis buffer 1% NP-40, 50 mM Tris-HCl pH 7.5, 150 mM NaCl, 1 mM EDTA, 0.25% sodium deoxycholate; lysate with anti-Flag agarose beads overnight at 4°C; immunoblot with anti-Flag and anti-Myc.

The chains behind the UniProt entries cited, without tags or fusion partners. Where a name states a change or a piece, a line headed by the entry shows the natural chain unless it says otherwise.
UniProt A0A059T907: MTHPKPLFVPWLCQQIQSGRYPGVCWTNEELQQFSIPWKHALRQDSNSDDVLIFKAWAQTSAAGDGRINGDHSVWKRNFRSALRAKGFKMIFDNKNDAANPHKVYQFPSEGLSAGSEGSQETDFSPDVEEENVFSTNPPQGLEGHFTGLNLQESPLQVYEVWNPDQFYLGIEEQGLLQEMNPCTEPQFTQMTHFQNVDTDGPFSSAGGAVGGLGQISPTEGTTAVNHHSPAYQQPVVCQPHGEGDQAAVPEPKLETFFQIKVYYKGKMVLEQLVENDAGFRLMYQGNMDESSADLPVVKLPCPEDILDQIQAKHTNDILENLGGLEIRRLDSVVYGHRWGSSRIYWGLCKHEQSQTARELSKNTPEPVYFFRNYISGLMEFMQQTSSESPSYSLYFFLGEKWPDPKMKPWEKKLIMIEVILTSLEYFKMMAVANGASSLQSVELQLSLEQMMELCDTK

Drawing on paper PMC7873974, this text covers binding for one substance.

These are yes or no findings as the source states them, for the method shown. In cells and extracts the contact can be indirect. Binding calls can cover weak binding; strength is not graded here.

As to “CiIRF3-Myc (grass carp IRF3) (from UniProt A0A059T907)”, the binding entry is reported as “binds”.
